From ChEMBL document CHEMBL3132834, “Synthesis and biological activity of NOSH-naproxen (AVT-219) and NOSH-sulindac (AVT-18A) as potent anti-inflammatory agents with chemotherapeutic potential” (Medchemcomm, 2013)

Tested on: Jurkat
Experiment: Cytotoxicity against human Jurkat cells assessed as growth inhibition after 24 hrs by MTT assay
Assay type: functional, cell-based
Method in brief: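 Jurkat T cells grown in suspension in RPMI 1640 with 10% FCS. 30,000 cells/well added to serially diluted compounds in V-bottom plates, 24 h at 37°C in 5% CO₂. MTT (1.1 mg/mL) added for 4 h more, formazan dissolved in DMSO, A570 read. IC₅₀ from 5–7 experiments in triplicate; ratio is parent IC₅₀ over hybrid IC₅₀.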

COc1ccc2cc([C@H](C)C(=O)O)ccc2c1 [NAPROXEN] was tested, and the IC50 was 2.55 mM.
